Data taken from the supplement of paper PMC12542422.
Where a name gives a salt, the structure may show the parent alone. ± gives the standard deviation of the averaged measurements. This is one part of the list. These are raw signals, not scaled to a control.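 Ribosome-assembly readouts in HeLa cells were imaged via ENP1 staining, with or without export block, or inducible tagged ribosomal protein reporters. Machine learning classified per-cell signal location versus solvent (DMSO) controls. Hits surpassed the DMSO false-positive mean by five standard deviations and were visually confirmed; three biological replicates.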

Assays:
[1] = tested on: HeLa K (ENP1 immunofluorescence, +LMB); assay: fraction of cells with nucleolar or nucleolar/nucleoplasmic ENP1 signal (MainHitrate); higher = more cells with nucleolar/nuclear readout signal (for ENP1 -LMB: less RNAPI inhibition; for +LMB ENP1 and RP reporters: stronger nuclear/nucleolar retention, i.e. ribosome biogenesis defect); details: concentration: 1 µM; treatment time: 6 h; ENP1 +LMB; leptomycin B: 20 nM, last 1.5 h
[2] = tested on: HeLa K (ENP1 immunofluorescence, no LMB); assay: as above; details: concentration: 1 µM; treatment time: 6 h; ENP1 -LMB; leptomycin B: none
HeLa RPS2-YFP reporter = assay: fraction of reporter-positive cells with nuclear (nucleolar or nucleolar/nucleoplasmic) RPS2-YFP (MainHitrate); higher = more cells with nucleolar/nuclear readout signal (for ENP1 -LMB: less RNAPI inhibition; for +LMB ENP1 and RP reporters: stronger nuclear/nucleolar retention, i.e. ribosome biogenesis defect); details: concentration: 1 µM; treatment time: 6 h
HeLa RPL29-GFP reporter = assay: fraction of reporter-positive cells with nuclear (nucleolar or nucleolar/nucleoplasmic) RPL29-GFP (MainHitrate); higher = more cells with nucleolar/nuclear readout signal (for ENP1 -LMB: less RNAPI inhibition; for +LMB ENP1 and RP reporters: stronger nuclear/nucleolar retention, i.e. ribosome biogenesis defect); details: concentration: 1 µM; treatment time: 6 h

Row | Structure (SMILES) | fraction [1] | fraction [2] | fraction of reporter-positive cells with nuclear (HeLa RPS2-YFP reporter) | fraction of reporter-positive cells with nuclear (HeLa RPL29-GFP reporter)
1 | O=P(O)(O)C(Cl)(Cl)P(=O)(O)O [Clodronate Disodium] | 0.0619 ± 0.088 | 0.978 ± 0.038 | 0.128 ± 0.11 | 0.199 ± 0.1
2 | CC(NCCc1ccc(O)cc1)C(O)c1ccc(O)cc1 (configuration not stated) [Ritodrine hydrochloride (Yutopar)] | 0.136 ± 0.2 | 0.991 ± 0.015 | 0.116 ± 0.1 | 0.221 ± 0.093
3 | C[C@@](Cc1ccc(O)c(O)c1)(NN)C(=O)O [Carbidopa] | 0.148 ± 0.23 | 0.984 ± 0.027 | 0.106 ± 0.067 | 0.222 ± 0.066
4 | CN(Cc1cc(Br)cc(Br)c1N)C1CCCCC1 [Bromhexine HCl] | 0.0719 ± 0.1 | 0.99 ± 0.018 | 0.133 ± 0.11 | 0.188 ± 0.077
5 | c1ccc2c(c1)CCCC2C1=NCCN1 (configuration not stated) [tetrahydrozoline hydrochloride] | 0.0874 ± 0.12 | 0.991 ± 0.016 | 0.115 ± 0.12 | 0.186 ± 0.043
6 | CN(N=O)C(=O)N[C@@H](C=O)[C@@H](O)[C@H](O)[C@H](O)CO [Streptozotocin (Zanosar)] | 0.107 ± 0.11 | 0.9984 ± 0.0027 | 0.0763 ± 0.036 | 0.213 ± 0.06
7 | C[C@@H]1[C@H](O)[C@@H](C)/C=C/C=C/C=C/C=C/C=C/C=C/C=C/[C@H](O[C@@H]2O[C@H](C)[C@@H](O)[C@H](N)[C@@H]2O)C[C@@H]2O[C@](O)(C[C@@H](O)C[C@@H](O)[C@H](O)CC[C@@H](O)C[C@@H](O)CC(=O)O[C@H]1C)C[C@H](O)[C@H]2C(=O)O [Amphotericin B (Abelcet)] | 0.117 ± 0.14 | 0.998 ± 0.0035 | 0.12 ± 0.083 | 0.208 ± 0.056
8 | Oc1ncnc2[nH]ncc12 [Allopurinol (Zyloprim)] | 0.191 ± 0.25 | 0.9984 ± 0.0027 | 0.103 ± 0.059 | 0.226 ± 0.066
9 | CN1CCN2c3ncccc3Cc3ccccc3C2C1 (configuration not stated) [Mirtazapine (Remeron, Avanza)] | 0.1 ± 0.14 | 0.989 ± 0.019 | 0.112 ± 0.065 | 0.214 ± 0.075
10 | Cc1ccc(S(=O)(=O)NC(=O)NN2CCCCCC2)cc1 [Tolazamide] | 0.111 ± 0.13 | 0.917 ± 0.14 | 0.17 ± 0.16 | 0.301 ± 0.23
11 | Cc1cc(C(C)(C)C)c(O)c(C)c1CC1=NCCN1 [Oxymetazoline hydrochloride] | 0.135 ± 0.18 | 0.994 ± 0.01 | 0.111 ± 0.081 | 0.243 ± 0.075
12 | C[C@@H](Oc1cc(-c2cnn(C3CCNCC3)c2)cnc1N)c1c(Cl)ccc(F)c1Cl | 0.094 ± 0.038 | 0.9976 ± 0.0042 | 0.0789 ± 0.053 | 0.244 ± 0.061
13 | Nc1nc2c(ncn2COC(CO)CO)c(=O)[nH]1 [Ganciclovir] | 0.104 ± 0.13 | 0.992 ± 0.013 | 0.128 ± 0.074 | 0.216 ± 0.047
14 | CN(C/C=C/C#CC(C)(C)C)Cc1cccc2ccccc12 [Terbinafine (Lamisil, Terbinex)] | 0.104 ± 0.093 | 0.9987 ± 0.0023 | 0.118 ± 0.092 | 0.224 ± 0.073
15 | c1ccc(CN(CC2=NCCN2)c2ccccc2)cc1 [Antazoline HCl] | 0.0488 ± 0.068 | 0.987 ± 0.023 | 0.124 ± 0.11 | 0.224 ± 0.063
16 | CN(c1nccc(=O)[nH]1)C1CCN(c2nc3ccccc3n2Cc2ccc(F)cc2)CC1 [Mizolastine (Mizollen)] | 0.101 ± 0.15 | 0.9943 ± 0.0099 | 0.103 ± 0.076 | 0.228 ± 0.083
17 | CC1(C)[C@@H](OC(=O)CCC(=O)O)CC[C@]2(C)[C@H]3C(=O)C=C4[C@@H]5C[C@@](C)(C(=O)O)CC[C@]5(C)CC[C@@]4(C)[C@]3(C)CC[C@@H]12 [Carbenoxolone Sodium] | 0.174 ± 0.21 | 0.9968 ± 0.0056 | 0.177 ± 0.17 | 0.288 ± 0.24
18 | C=C1/C(=C\C=C2/CCC[C@]3(C)[C@@H]([C@H](C)CCCC(C)C)CC[C@@H]23)C[C@@H](O)C[C@@H]1O [Alfacalcidol] | 0.0478 ± 0.024 | 0.9986 ± 0.0024 | 0.0984 ± 0.07 | 0.212 ± 0.044
19 | CCN(CC)CCOC(=O)C1(C2CCCCC2)CCCCC1 [Dicyclomine HCl] | 0.168 ± 0.24 | 0.9971 ± 0.005 | 0.21 ± 0.073 | 0.294 ± 0.24
20 | NS(=O)(=O)c1cc2c(cc1Cl)NCNS2(=O)=O [Hydrochlorothiazide] | 0.0664 ± 0.065 | 0.9975 ± 0.0043 | 0.122 ± 0.062 | 0.194 ± 0.06
21 | CC(N/C(=N\C#N)Nc1ccncc1)C(C)(C)C (configuration not stated) [Pinacidil] | 0.172 ± 0.25 | 0.9985 ± 0.0027 | 0.395 ± 0.3 | 0.273 ± 0.17
22 | CC(C)(C)c1nc(-c2cccc(NS(=O)(=O)c3c(F)cccc3F)c2F)c(-c2ccnc(N)n2)s1 | 0.112 ± 0.15 | 0.996 ± 0.0069 | 0.144 ± 0.1 | 0.243 ± 0.12
23 | CCCCCCCCCC(=O)N[C@@H](Cc1c[nH]c2ccccc12)C(=O)N[C@H](CC(N)=O)C(=O)N[C@@H](CC(=O)O)C(=O)N[C@@H]1C(=O)NCC(=O)N[C@@H](CCCN)C(=O)N[C@@H](CC(=O)O)C(=O)N[C@H](C)C(=O)N[C@@H](CC(=O)O)C(=O)NCC(=O)N[C@H](CO)C(=O)N[C@@H]([C@H](C)CC(=O)O)C(=O)N[C@@H](CC(=O)c2ccccc2N)C(=O)O[C@@H]1C [Daptomycin] | 0.0914 ± 0.063 | 0.998 ± 0.0035 | 0.121 ± 0.062 | 0.194 ± 0.069

Ordered by molar mass (smallest number first): some entries from above.
Row | Structure (SMILES) | fraction [1] | fraction [2] | fraction of reporter-positive cells with nuclear (HeLa RPS2-YFP reporter) | fraction of reporter-positive cells with nuclear (HeLa RPL29-GFP reporter)
3 | C[C@@](Cc1ccc(O)c(O)c1)(NN)C(=O)O [Carbidopa] | 0.148 ± 0.23 | 0.984 ± 0.027 | 0.106 ± 0.067 | 0.222 ± 0.066
13 | Nc1nc2c(ncn2COC(CO)CO)c(=O)[nH]1 [Ganciclovir] | 0.104 ± 0.13 | 0.992 ± 0.013 | 0.128 ± 0.074 | 0.216 ± 0.047
11 | Cc1cc(C(C)(C)C)c(O)c(C)c1CC1=NCCN1 [Oxymetazoline hydrochloride] | 0.135 ± 0.18 | 0.994 ± 0.01 | 0.111 ± 0.081 | 0.243 ± 0.075
15 | c1ccc(CN(CC2=NCCN2)c2ccccc2)cc1 [Antazoline HCl] | 0.0488 ± 0.068 | 0.987 ± 0.023 | 0.124 ± 0.11 | 0.224 ± 0.063
19 | CCN(CC)CCOC(=O)C1(C2CCCCC2)CCCCC1 [Dicyclomine HCl] | 0.168 ± 0.24 | 0.9971 ± 0.005 | 0.21 ± 0.073 | 0.294 ± 0.24
